# Measurements: patent US10035814B2, “Guanine analogs as telomerase substrates and telomere length affectors” (Geron Corporation, priority 2011, dated 2018)
# Amino acid sequences for entries named in this document (tags omitted). A change or cut given only in a name is not applied to a line headed by its entry.
# UniProt O14746: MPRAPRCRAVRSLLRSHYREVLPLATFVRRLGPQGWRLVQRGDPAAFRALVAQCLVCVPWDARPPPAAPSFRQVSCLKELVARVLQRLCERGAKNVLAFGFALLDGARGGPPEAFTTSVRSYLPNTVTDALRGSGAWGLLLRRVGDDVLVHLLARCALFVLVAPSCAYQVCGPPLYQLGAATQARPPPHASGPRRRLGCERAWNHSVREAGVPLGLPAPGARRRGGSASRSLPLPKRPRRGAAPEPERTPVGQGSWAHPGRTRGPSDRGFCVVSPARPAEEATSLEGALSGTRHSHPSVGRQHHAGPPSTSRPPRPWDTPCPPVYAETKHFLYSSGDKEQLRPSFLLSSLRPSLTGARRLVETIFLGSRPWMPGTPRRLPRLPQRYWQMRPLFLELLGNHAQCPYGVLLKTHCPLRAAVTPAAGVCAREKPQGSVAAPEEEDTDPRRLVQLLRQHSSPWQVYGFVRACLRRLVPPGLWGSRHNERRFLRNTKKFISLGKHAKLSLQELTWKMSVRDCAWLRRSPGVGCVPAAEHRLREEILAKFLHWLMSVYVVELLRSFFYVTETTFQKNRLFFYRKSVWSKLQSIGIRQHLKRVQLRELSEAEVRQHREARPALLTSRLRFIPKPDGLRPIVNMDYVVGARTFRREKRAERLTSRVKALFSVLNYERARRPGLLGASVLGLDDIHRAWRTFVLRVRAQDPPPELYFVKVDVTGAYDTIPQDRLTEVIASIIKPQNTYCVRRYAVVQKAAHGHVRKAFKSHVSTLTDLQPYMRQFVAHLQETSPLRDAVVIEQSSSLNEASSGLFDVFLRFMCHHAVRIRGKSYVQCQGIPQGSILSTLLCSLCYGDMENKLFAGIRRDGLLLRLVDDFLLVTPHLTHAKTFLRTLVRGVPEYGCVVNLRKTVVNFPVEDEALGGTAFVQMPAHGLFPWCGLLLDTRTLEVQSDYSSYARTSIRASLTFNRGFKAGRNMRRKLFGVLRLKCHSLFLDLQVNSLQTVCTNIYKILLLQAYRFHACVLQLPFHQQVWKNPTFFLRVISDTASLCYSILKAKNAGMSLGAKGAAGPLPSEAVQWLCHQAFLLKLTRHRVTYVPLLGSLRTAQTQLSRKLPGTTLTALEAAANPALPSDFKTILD
# For at least one compound, name, drawing or mass did not settle the structure.
# Experiments:
# telomerase in HT3 cells = telomerase in HT3 cells (Homo sapiens (Human), UniProt O14746); assay: Ex vivo TRAP assay in HT3 cells; assay type: cell-based
# Procedure: HT3 cells were treated for three days with increasing concentrations of PMPG-diisopropyloxy ester ranging from 0.2 μM to 20 μM. Cells (HT3 RPMI+10% PBS) were incubated with compound for 24 hr after which PSTS primer (phosphorothioate-d(AATCCGTCGAGCAGAGTT (SEQ ID NO: 6) containing a 5′ Cy-5 label) (7.5 μM) and fresh compound are added for an additional 24 hr. Cells were lysed and endogenous telomerase inactivated by heating (15 min, 75° C.). Products were amplified by 30 cycles of PCR under TRAP conditions set forth above and quantified. The results of two independent experiments are shown in Table 4.
# HT3 cells were treated for three days with increasing concentrations of one or more of the indicated compounds ranging from 0.2 μM to 20 μM. Cells (HT3 RPMI+10% FBS) were incubated with compound for 24 hours, after which PSTS primer (phosphorothioate-d AATCCGTCGAGCAGAGTT (SEQ ID NO: 6) containing a 5′ Cy-5 label) (7.5 μM) and fresh compound were added for an additional 24 hours. Cells were lysed and endogenous telomerase inactivated by heating (15 minutes, 75° C.). Products were amplified by 30 cycles of PCR under TRAP conditions set forth in Kim et al., Science 266:2011, […] (which reference is incorporated herein in its entirety) and quantified.
# [1] = system: U87 gb, Caki 1 and A549 cells; assay: Telomere repeat fragment assay, three cancer cell lines treated for several weeks; assay type: cell-based; settings: 10 μM or 20 μM, several weeks (4-6 weeks)
# U87 glioblastoma cells = assay: Long-term treatment assay, growth of U87 glioblastoma cells; assay type: cell-based; settings: for cell proliferation / growth: 10 μM or 20 μM, long-term treatment
# Caki-1 cells [2] = assay: Long-term treatment assay, growth curves of Caki-1 cells; assay type: cell-based, human; settings: 10 or 20 μM
# A549 cells = assay: Long-term treatment assay, growth curves of A549 cells; assay type: cell-based; settings: 10 μM or 20 μM, significant lag
# Caki-1 cells [3] = assay: Caki-1 tumor growth in SCID hairless outbred (SHO) mice; assay type: in vivo; settings: 30 mg/kg intraperitoneal
# Procedure: Low-passage Caki-1 cells were injected subcutaneously into the flank of SCID hairless outbred (SHO) mice receiving 30 mg/kg of one of the following via intraperitoneal injection: vehicle (PBS with 0.4% Tween 20), Imetelstat (163 L), PMPG free acid (ID#142693), or PMPG prodrug (ID#142715). Calipers were used to measure tumor length and width bi-weekly, and tumor volume was calculated. Once a tumor had grown >50 mm^3, the animal was randomly entered into a study group, either control or treatment. Animals received 30 mg/kg compound via intraperitoneal injection for the duration of the study. The control vehicle was PBS with 0.4% Tween 20. Tumor volume was measured bi-weekly, and animals were sacrificed either when tumor size was >2000 mm^3 or at defined study completion date.
# At the conclusion of the study, a linear transformation of the tumor growth curves was performed. The slope of the growth curves for each treatment group was derived by using a linear mixed effects model. The Y-intercept was used to confirm random tumor starting size at the time of animals entering into the study.
# DU-145 tumor cells = assay: DU-145 tumor growth in athymic (nu/nu) mice (planned); assay type: in vivo; settings: oral, daily, at least one week; experiment not carried out
smiles,measurement,setting,value
"CC(C)OC(=O)OCOP(=O)(COC(C)Cn1cnc2c(=O)[nH]c(N)nc21)OCOC(=O)OC(C)C (single isomer, unassigned) [ID#142715]",telomerase inhibition in cells,telomerase in HT3 cells,Telomerase inhibition is observed
same,telomere shortening,[1],results in telomere shortening
same,cell proliferation / growth,U87 glioblastoma cells; listed as PMPG diisopropyloxy ester,reduces cell proliferation
same,cell proliferation / growth,U87 glioblastoma cells; listed as PMPG prodrug,reduced growth
same,cell division,"U87 glioblastoma cells; higher concentration (20 μM), 47 days",the cells ceased to divide
same,cell growth,Caki-1 cells [2],reduced growth
same,cell growth,A549 cells,Growth inhibition is observed
same,tumor growth compared to vehicle control,Caki-1 cells [3],indistinguishable in tumor growth
same,tumor size versus control mice,DU-145 tumor cells,smaller tumors than control mice
